Results: US20090275033A1
These are yes or no findings as the source states them, for the method shown. Some results given as binding are weak or reduced against the parent protein; the word gives no strength.

The chains behind the UniProt entries cited, without tags or fusion partners.
UniProt P23760: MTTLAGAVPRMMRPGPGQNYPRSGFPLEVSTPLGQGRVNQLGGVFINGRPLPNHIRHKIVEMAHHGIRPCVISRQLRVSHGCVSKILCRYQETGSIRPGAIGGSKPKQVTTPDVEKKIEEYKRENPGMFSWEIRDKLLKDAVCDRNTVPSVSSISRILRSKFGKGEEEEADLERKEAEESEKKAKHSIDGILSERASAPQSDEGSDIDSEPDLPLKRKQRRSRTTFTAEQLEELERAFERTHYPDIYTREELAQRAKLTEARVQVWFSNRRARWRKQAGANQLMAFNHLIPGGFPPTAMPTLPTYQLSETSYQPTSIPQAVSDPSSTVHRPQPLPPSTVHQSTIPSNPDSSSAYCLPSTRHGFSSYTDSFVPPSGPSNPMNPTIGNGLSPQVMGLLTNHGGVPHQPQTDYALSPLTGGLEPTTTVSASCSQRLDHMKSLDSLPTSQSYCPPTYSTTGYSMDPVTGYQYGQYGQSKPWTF

B1: DDX31 long form (full-length variant 1, amino acids 1-851) (enzyme)
chain: MAPDLASQRHSESFPSVNSRPNVILPGREGRREGLPPGGGTRGSLVPTRPVPPSPAPLGTSPYSWSRSGPGRGGGAGSSRVPRGVPGPAVCAPGSLLHHASPTQTMAAADGSLFDNPRTFSRRPPAQASRQAKATKRKYQASSEAPPAKRRNETSFLPAKKTSVKETQRTFKGNAQKMFSPKKHSVSTSDRNQEERQCIKTSSLFKNNPDIPELHRPVVKQVQEKVFTSAAFHELGLHPHLISTINTVLKMSSMTSVQKQSIPVLLEGRDALVRSQTGSGKTLAYCIPVVQSLQAMESKIQRSDGPYALVLVPTRELALQSFDTVQKLLKPFTWIVPGVLMGGEKRKSEKARLRKGINILISTPGRLVDHIKSTKNIHFSRLRWLVFDEADRILDLGFEKDITVILNAVNAECQKRQNVLLSATLTEGVTRLADISLHDPVSISVLDKSHDQLNPKDKAVQEVCPPPAGDKLDSFAIPESLKQHVTVVPSKLRLVCLAAFILQKCKFEEDQKMVVFFSSCELVEFHYSLFLQTLLSSSGAPASGQLPSASMRLKFLRLHGGMEQEERTAVFQEFSHSRRGVLLCTDVAARGLDLPQVTWIVQYNAPSSPAEYIHRIGRTARIGCHGSSLLILAPSEAEYVNSLASHKINVSEIKMEDILCVLTRDDCFKGKRWGAQKSHAVGPQEIRERATVLQTVFEDYVHSSERRVSWAKKALQSFIQAYATYPRELKHIFHVRSLHLGHVAKSFGLRDAPRNLSALTRKKRKAHVKRPDLHKKTQSKHSLAEILRSEYSSGMEADIAKVKKQNAPGEPGGRPLQHSLQPTPCFGRGKTLKWRKTQKGVQRDSKTSQKV
B2: GTF3C4 (protein, human, UniProt Q9UKN8 1-822, looked up)
chain: MNTADQARVGPADDGPAPSGEEEGEGGGEAGGKEPAADAAPGPSAAFRLMVTRREPAVKLQYAVSGLEPLAWSEDHRVSVSTARSIAVLELICDVHNPGQDLVIHRTSVPAPLNSCLLKVGSKTEVAECKEKFAASKDPTVSQTFMLDRVFNPEGKALPPMRGFKYTSWSPMGCDANGRCLLAALTMDNRLTIQANLNRLQWVQLVDLTEIYGERLYETSYRLSKNEAPEGNLGDFAEFQRRHSMQTPVRMEWSGICTTQQVKHNNECRDVGSVLLAVLFENGNIAVWQFQLPFVGKESISSCNTIESGITSPSVLFWWEYEHNNRKMSGLIVGSAFGPIKILPVNLKAVKGYFTLRQPVILWKEMDQLPVHSIKCVPLYHPYQKCSCSLVVAARGSYVFWCLLLISKAGLNVHNSHVTGLHSLPIVSMTADKQNGTVYTCSSDGKVRQLIPIFTDVALKFEHQLIKLSDVFGSVRTHGIAVSPCGAYLAIITTEGMINGLHPVNKNYQVQFVTLKTFEEAAAQLLESSVQNLFKQVDLIDLVRWKILKDKHIPQFLQEALEKKIESSGVTYFWRFKLFLLRILYQSMQKTPSEALWKPTHEDSKILLVDSPGMGNADDEQQEEGTSSKQVVKQGLQERSKEGDVEEPTDDSLPTTGDAGGREPMEEKLLEIQGKIEAVEMHLTREHMKRVLGEVYLHTWITENTSIPTRGLCNFLMSDEEYDDRTARVLIGHISKKMNKQTFPEHCSLCKEILPFTDRKQAVCSNGHIWLRCFLTYQSCQSLIYRRCLLHDSIARHPAPEDPDWIKRLLQSPCPFCDSPVF

Legend:
[1] = molecular target: T1, BNIPXL-beta (BCl2/adenovirus E1B 19 kDa protein-interacting protein 2) (human) (UniProt Q8WUY3); experiment: yeast two-hybrid, DDX31 bait against human melanocyte prey library; global biological score PIM (PBS class)
T1 sequence: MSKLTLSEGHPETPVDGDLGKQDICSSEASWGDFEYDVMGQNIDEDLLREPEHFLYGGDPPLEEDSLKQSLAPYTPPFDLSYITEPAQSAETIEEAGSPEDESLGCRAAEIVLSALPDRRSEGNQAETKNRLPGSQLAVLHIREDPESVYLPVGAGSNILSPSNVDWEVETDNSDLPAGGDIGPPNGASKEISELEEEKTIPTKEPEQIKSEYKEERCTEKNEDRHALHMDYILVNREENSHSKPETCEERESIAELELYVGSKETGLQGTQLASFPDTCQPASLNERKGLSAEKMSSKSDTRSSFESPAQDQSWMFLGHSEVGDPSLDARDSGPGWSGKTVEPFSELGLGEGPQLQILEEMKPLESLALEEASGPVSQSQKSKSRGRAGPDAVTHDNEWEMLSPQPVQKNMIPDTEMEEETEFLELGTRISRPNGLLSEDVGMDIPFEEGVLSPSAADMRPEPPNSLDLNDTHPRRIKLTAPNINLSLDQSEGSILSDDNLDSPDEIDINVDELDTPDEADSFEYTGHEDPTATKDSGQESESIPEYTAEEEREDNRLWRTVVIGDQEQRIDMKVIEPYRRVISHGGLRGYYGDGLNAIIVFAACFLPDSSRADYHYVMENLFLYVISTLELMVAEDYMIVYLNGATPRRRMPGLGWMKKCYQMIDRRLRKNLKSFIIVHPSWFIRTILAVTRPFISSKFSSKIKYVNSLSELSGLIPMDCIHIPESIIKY

[2] = molecular target: T1, BNIPXL-beta (BCl2/adenovirus E1B 19 kDa protein-interacting protein 2) (human); experiment: yeast two-hybrid
[3] = molecular target: PAX3 (human) (UniProt P23760); experiment: yeast two-hybrid

| Binder | binding [1] | binding [2] | binding [3] |
| --- | --- | --- | --- |
| B1 | binds | binds |  |
| B2 |  |  | binds |
